Test results reported in paper doi:10.1101/2022.02.17.480956 (bioRxiv, 2022).
These are yes or no findings as the source states them, for the method shown. For some assays here: In cells and extracts the contact can be indirect. Some entries that bind do so weakly or less than the wild type. For some assays here: Where a sequence is shown, tags or fusion partners need not be part of it.

By UniProt entry, the sequences of proteins in these tests, tags left out. Where a name states a change or a piece, a line headed by the entry shows the natural chain unless it says otherwise. Chains listed by the source or under a name are the forms on record and can include a tag or linker.
UniProt P97334: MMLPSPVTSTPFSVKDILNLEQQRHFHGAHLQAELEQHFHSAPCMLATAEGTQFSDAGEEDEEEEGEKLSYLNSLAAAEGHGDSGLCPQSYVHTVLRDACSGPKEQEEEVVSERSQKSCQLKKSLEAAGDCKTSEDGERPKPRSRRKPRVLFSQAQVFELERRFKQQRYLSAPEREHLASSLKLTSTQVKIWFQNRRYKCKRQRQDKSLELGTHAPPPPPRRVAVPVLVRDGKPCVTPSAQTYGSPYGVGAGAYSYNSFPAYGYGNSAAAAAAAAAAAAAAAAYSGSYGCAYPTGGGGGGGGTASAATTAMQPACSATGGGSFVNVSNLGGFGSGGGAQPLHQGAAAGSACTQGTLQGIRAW
NKX2-3^ΔTN (P97334, form named): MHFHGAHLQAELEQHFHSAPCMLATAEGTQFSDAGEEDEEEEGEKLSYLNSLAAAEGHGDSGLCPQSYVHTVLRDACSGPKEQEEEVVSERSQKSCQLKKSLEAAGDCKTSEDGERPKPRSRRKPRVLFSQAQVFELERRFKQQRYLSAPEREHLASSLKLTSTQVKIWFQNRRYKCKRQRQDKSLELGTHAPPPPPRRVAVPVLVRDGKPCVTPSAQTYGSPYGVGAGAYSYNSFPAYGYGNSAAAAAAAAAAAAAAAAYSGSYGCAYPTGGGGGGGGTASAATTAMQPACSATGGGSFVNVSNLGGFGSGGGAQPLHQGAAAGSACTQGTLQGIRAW

How the values were obtained:
[1] = biological target: T1, COUP-TFII (endogenous, DN-MAML bEnd.3 cells) (mouse (endogenous in bEnd.3)) (UniProt P43135); test: proximity ligation
T1 sequence: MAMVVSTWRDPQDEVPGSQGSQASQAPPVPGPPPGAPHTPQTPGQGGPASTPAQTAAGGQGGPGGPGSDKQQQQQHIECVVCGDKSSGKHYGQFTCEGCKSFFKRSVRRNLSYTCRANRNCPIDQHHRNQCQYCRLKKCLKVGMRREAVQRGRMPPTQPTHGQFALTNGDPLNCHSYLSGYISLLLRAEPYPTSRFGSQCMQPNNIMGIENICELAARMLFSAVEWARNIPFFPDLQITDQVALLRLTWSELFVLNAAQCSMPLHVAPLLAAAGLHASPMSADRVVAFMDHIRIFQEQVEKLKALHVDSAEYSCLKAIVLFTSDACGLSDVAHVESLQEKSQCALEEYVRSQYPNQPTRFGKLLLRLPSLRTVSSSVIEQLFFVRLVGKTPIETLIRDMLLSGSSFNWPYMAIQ

[2] = biological target: T2, recombinant COUP-TFII (construct not told for this experiment) (mouse) (UniProt P43135); test: native gel or EMSA
T2 sequence: T1 sequence

Row | binding [1] | binding [2] | Substance
1 | binds | – | NKX2-3 (endogenous, DN-MAML bEnd.3 cells) (from UniProt P97334 1-362)
2 | – | no binding | NKX2-3^ΔTN (from UniProt P97334 1-362)
